Where “and” joins values, the source holds several entries; their conditions need not be identical. Equal entries are not always repeated. In all, about 330,000 compounds went through this assay and about 2,800 (0.85%) were called active. This list was built around the results that the source calls inconclusive (neither active nor inactive); the mix of calls is not that of the screen.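 Rule for the calls: active = mean inhibition across replicates of 60% or more, whatever share of single replicates reaches that level; inconclusive = some that reach 60%, reason not given; inactive = mean inhibition across replicates below 60%.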
Assay: inhibitors of MITF-dependent TRPM1 promoter reporter, primary screen, cell-based, SK-MEL-5, single point, luciferase (AID 488899)
Details: SK-MEL-5 TRPM1 promoter luciferase, 24 h; at 12.5 µM; hits give high values

inhibition, active:
O=C1CN(C(=O)Cn2ncc(Cl)c(Cl)c2=O)c2ccccc2N1 92.8%, CC1C/C(=C/c2ccncc2)C(=O)/C(=C/c2ccncc2)C1 (centres undefined) 106%, C/C(=N\NC(=O)C1COc2ccccc2O1)c1ccccn1 (centres undefined) 83.3%, CC1CCCCN1S(=O)(=O)c1ccc(C(=O)N(CCCN(C)C)c2nc3ccc(Br)cc3s2)cc1 (centres undefined) 94.5%, N#C/C(=C\c1ccc(OCc2ccc(C(=O)O)cc2)cc1)C(=O)N1CCOCC1 84.6%, CCN1CCN(Cc2ccc(NC(=O)c3ccc(C)c(NC(=O)C(=O)c4c[nH]c5ccccc45)c3)cc2C(F)(F)F)CC1 104% and 82.4%, COc1ccc(OC)c(NC(=O)c2nc(S(=O)(=O)Cc3ccccc3)ncc2Cl)c1 94.8%, CNC(=O)COC(=O)c1ccccc1C(=O)c1ccc(Cl)c([N+](=O)[O-])c1 89.2%, CN(C)c1cc[n+](CC(=O)c2ccc(-c3ccccc3)cc2)cc1 70.2%, COCCN(CC(=O)NC1CCCCC1)C(=O)/C=C/C(=O)c1ccc(OC)cc1O 93.9%, CCN1CCN(C(c2ccc(C(F)(F)F)cc2)c2ccc3cccnc3c2O)CC1 (centres undefined) 66.5%, O=C(Nc1nc(-c2ccccn2)cs1)c1ccc(F)c(S(=O)(=O)N2CCOCC2)c1 66.9%, CC1CCC(C(C)C)C(OC(=O)Cn2c(-c3ccc(F)cc3)[n+](C)c3ccccc32)C1 (centres undefined) 79.6%, CN1CCN(Cc2c(C(=O)N/N=C/c3cccc(Br)c3)nnn2-c2nonc2N)CC1 76.6%, O=C(NCC1OCCc2ccccc21)c1ccc(NC(=O)c2ccc(Cl)cc2)cc1 (centres undefined) 69.2%, CCCCn1c(=O)[nH]c(=O)c2c1nc(Cn1ncc(Cl)c(Cl)c1=O)n2CCC 92.1%, C/C(=N\Nc1ncc(Cl)cc1Cl)c1ccccn1 95.2%, CC1=CC2C(C(O)CC3(C)C2CC(C)C32OCOC23COCO3)C2(C)C/C(=C\O)C(=O)C=C12 (centres undefined) 79.7%

inhibition, inactive:
COc1ccc(NC(=O)N2CCN(C(=O)C3CCCO3)CC2)cc1 (centres undefined) -1.59%, C=CCC[C@H](Cc1ccc(F)cc1)C(=O)OC[C@H](Cc1c[nH]c2ccccc12)NC(=O)[C@@H](CC=C)CC(=O)NCCO -3.75%, Cn1cc(C(C[N+](=O)[O-])c2ccccc2)c2ccccc21 (centres undefined) 15.8%, Cc1c(NC(=O)c2c(N)sc3c2CCCC3)c(=O)n(-c2ccccc2)n1C 10.9%, COc1ccc(C2c3ccc4ccccc4c3Oc3ncn(Cc4ccco4)c(=N)c32)cc1OC (centres undefined) 27%, Cc1ccccc1C(=O)c1cccn1CC(=O)N1CCCCC1 -7.35%, CCN(CC)CCNC(=O)c1ccc(NC(=O)c2ccc(Cl)c(S(=O)(=O)N3CCCCCC3)c2)cc1 25.4%, O=C(/C=C/c1ccco1)NC(=S)Nc1ccccc1O -46%, O=C1C2CCCN2C(c2cccs2)N1c1ccc(Cl)cc1 (centres undefined) 7.31%, CCOc1ccc(-c2c(C(=O)N/N=C/c3ccccc3)nnn2-c2nonc2N)cc1 12.5%, CCOC(=O)c1sc(=NC(=O)CCSc2ccccc2)n(C)c1C -110%, CCCc1nc(SCC(=O)Nc2ccccc2)c2c(=O)n(C)c(=O)n(C)c2n1 2.4%, CC(C)(C)c1nc2c(s1)CCc1onc(-c3ccc(Br)cc3)c1-2 2.66%, COc1ccc(C(=O)CC(=O)c2ccc(C(C)(C)C)cc2)cc1 -13.4%, CSc1ccc(CNC(=O)CCn2ccc3cc(S(=O)(=O)N4CCCC4)ccc32)cc1 7.24%, CCC(=O)c1ccc(OC(=O)C2CCN(C3=NS(=O)(=O)c4ccccc43)CC2)cc1 3.31%, Cc1ccc(-c2c[nH]c(=S)n2-c2ccccc2)cc1 -3.16%

inhibition, inconclusive:
C(#Cc1ccccc1)C[N+]1(CC#Cc2cccc3ccccc23)CCCC1 60.4%, CNC(=O)c1nnsc1S(=O)c1ccc(Cl)cc1 (centres undefined) 60.3%, Cc1ccc(NC(=O)CCl)cc1S(=O)(=O)N1CCCCCC1 61.5%, Cc1cc(O)c2c(c1O)C(=O)[C@]13C(=C2O)C(=O)[C@@H]2[C@@H](O)[C@H]1[C@@H]1[C@H](O)[C@H]3C(=O)C3=C(O)c4c(O)cc(C)c(O)c4C(=O)[C@]312 61.3%, CC(=O)Oc1c(/C=C(\C#N)C(N)=O)[nH]c2ccccc12 62.1%, CCOC(=O)C1CCCN(C(=O)CNC(=O)c2nn(-c3ccc(OC)c(Cl)c3)c(=O)c3ccccc23)C1 (centres undefined) 91.6%, Cc1ccc(NC(=O)COc2ccc(/C=C3/SC(=Nc4ccccc4)N(Cc4cccnc4)C3=O)cc2)cc1 60.9%, COc1ccc(C[C@H]2CN3C(=NC[C@@H]3C(C)C)N2CCNC(=O)c2ccc(C)c(Br)c2)cc1 61.7%, CCCCCCn1c2c(c(=N)c3c1CCC3)CCC2 61.2%, Cc1ccc(N(Cc2cc(=O)[nH]c3ccccc23)C(=O)CCl)c(C)c1 61.7%, COc1cc(NC(=O)NCc2ccco2)ccc1-c1ccc(NC(=O)NCc2ccco2)cc1OC 62%, COc1ccc(NC(C)C(=O)N/N=C/c2ccc([N+](=O)[O-])s2)cc1 (centres undefined) 61.7%, C=C(C)c1nc(Oc2ccccc2)nc(Oc2ccccc2)n1 63%, CN1CCC(N(C)C(=O)/C=C/c2cn(-c3ccccc3)nc2-c2cccs2)CC1 61.1%, Clc1ccccc1/C=C/c1nc(-c2ccccn2)no1 61.3%, CCCC(=O)N1CCN(c2ccc(NC(=O)c3cc4ccccc4o3)cc2Cl)CC1 60.2%, CSc1cccc(NC(=S)N(CCCN2CCCC2)Cc2cccn2Cc2ccc(Cl)cc2)c1 66.3%, O=C(Nc1ccccn1)c1cc(-c2cccnc2)nc2ccc(Br)cc12 64%, CCC1CCCCN1CCCNC(=O)c1cn(CC)c2ccc(S(=O)(=O)N(C)C3CCCCC3)cc2c1=O (centres undefined) 62.6%, Cn1c(/C=C/c2ccc(Cl)cc2)c([N+](=O)[O-])c(=O)n(C)c1=O 62.1%, COc1ccc(OCc2cccc(C(=O)Nc3cc(C)on3)c2)cc1 60.2%, O=[N+]([O-])c1ccc(/C=N/Nc2ccnc3cc(Cl)ccc23)o1 60.1%, CC(C)(C)n1[nH]c2c3c(ccc2c1=O)C(=O)c1ccccc1C3=O 60.2%, COc1ccc(Oc2c(Cl)cnn(-c3ccc(Cl)c(Cl)c3)c2=O)cc1 62.5%, O=C(O)c1cc(N/N=C/C(Cl)=C/c2ccccc2)ccc1Cl 60.5%, O=C(N/N=C/c1ccc([N+](=O)[O-])o1)c1cc2c(ccc3ccccc32)o1 60.8%, COC(=O)c1c(NC(=O)C(Cl)Cl)sc2c1C(C(=O)OC)CC2 (centres undefined) 60.3%, C=CCn1c(COc2ccccc2)nnc1SC(C)C(=O)N/N=C/c1cc(Cl)ccc1O (centres undefined) 60.1%, COc1cc(C2C3=C(Nc4ncnn42)c2ccccc2CC3)cc(OC)c1OC (centres undefined) 64.6%, COc1cc(C(=O)NC2CCN(C)CC2)ccc1Nc1ncc2c(n1)N(C1CCCCC1)CCC(=O)N2C 61.4%, O=C1C(Cl)=C(NS(=O)(=O)c2ccc([N+](=O)[O-])cc2)C(=O)c2ccccc21 60.1%, CC(=O)N1CCCc2cc(S(=O)(=O)N3CCCC(C(=O)N4CCN(c5cccc(Cl)c5)CC4)C3)ccc21 (centres undefined) 60.8%, CC(C)CC(=O)NC(c1cccs1)c1ccc2cccnc2c1O (centres undefined) 60.3%, Cc1ccc(/C=C2/SC(=S)N(c3ccc(S(=O)(=O)Nc4nccs4)cc3)C2=O)cc1 63.3%, CN(C)CCCN(C(=O)c1ccc(S(=O)(=O)N2CCc3ccccc32)cc1)c1nc2c(Cl)cccc2s1 60.1%, Cc1[nH]n(-c2ccccc2)c(=O)c1N=Nc1cccc(C(=O)O)c1 62%, O=C(C[n+]1cccc2ccccc21)c1ccc([N+](=O)[O-])cc1 60.3%, Cc1nn(CC(=O)NCCCN2CCC(Cc3ccccc3)CC2)c(=O)c2cc(-c3ccccc3)nn12 72%, CCN1CCCC1CNC(=O)c1ccc2c(c1)N(Cc1cccc(Cl)c1)C(=O)c1ccccc1S2(=O)=O (centres undefined) 60.8%, CCc1ccc(C(=O)Nc2nc3ccccc3[nH]2)cc1 60.5%, N=c1n(CCN2CCCCC2)c2ccccc2n1CC(O)c1ccc(Cl)c(Cl)c1 (centres undefined) 75.5%, O=C(O)c1cc2ccccc2c(N=Nc2cccnc2)c1O 60.3%, CC1CCCCC1NC(=O)/C(C#N)=C/c1ccccc1F (centres undefined) 76.3%, CC1Sc2n(c3ccccc3[n+]2C)N=C1c1ccccc1 (centres undefined) 60.6%, COc1cc(-c2noc(C)c2-c2ccc(N(C)C)nc2)cc(OC)c1OC 61.7%, COc1ccccc1NC1=C(NC(C)=O)C(=O)c2ccccc2C1=O 60.9%, COc1cc(C(=O)NC2CCN(C)CC2)ccc1Nc1ncc2c(n1)N(CCc1ccccc1)CCC(=O)N2C 60.8%, O=C(CCl)N(c1ccccc1)C1CCS(=O)(=O)C1 (centres undefined) 63.1%, O=C1c2ccccc2C(=O)C12OC2c1ccc(Cl)cc1Cl (centres undefined) 61.1%

Source: PubChem BioAssay AID488899 (Broad Institute, 2010)
